Reference: article doi:10.1101/2020.03.16.993006 (bioRxiv, 2020)
Results are given in words; binding and its absence hold for the method and conditions named.

Molecular target: T1, human ferroportin (FPN), wild type, reconstituted in lipid nanodisc (human), Q9NP59
T1 chain: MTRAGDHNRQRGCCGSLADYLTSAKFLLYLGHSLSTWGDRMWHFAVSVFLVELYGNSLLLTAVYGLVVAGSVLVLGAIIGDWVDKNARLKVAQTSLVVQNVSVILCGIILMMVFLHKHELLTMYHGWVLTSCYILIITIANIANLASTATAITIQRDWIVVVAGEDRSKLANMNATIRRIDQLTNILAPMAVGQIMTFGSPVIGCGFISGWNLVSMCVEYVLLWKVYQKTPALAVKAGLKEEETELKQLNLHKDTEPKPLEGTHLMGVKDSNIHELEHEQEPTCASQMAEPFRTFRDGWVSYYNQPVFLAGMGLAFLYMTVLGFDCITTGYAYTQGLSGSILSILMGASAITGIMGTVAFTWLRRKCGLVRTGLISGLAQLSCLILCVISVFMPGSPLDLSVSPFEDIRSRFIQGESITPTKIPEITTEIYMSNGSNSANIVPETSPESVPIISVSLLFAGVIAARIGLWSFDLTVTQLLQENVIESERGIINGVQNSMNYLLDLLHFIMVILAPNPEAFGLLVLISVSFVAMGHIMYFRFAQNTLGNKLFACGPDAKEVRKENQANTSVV
Assay: cryo-EM structure
Settings: remark: other sources report otherwise

binding: no binding
B1: human ferroportin (FPN), wild type, reconstituted in lipid nanodisc, Q9NP59 1-571 (protein)
chain: T1 chain
